# Experimental data: PubChem BioAssay AID1159598 (NIAID, 2016)
# Screen: 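Which TLR signalling parts human macrophages rely on after flagellin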
# Cell system: human THP-1 B5 reporter cells made macrophage-like with PMA
# Reagents: single siRNA against human genes
# Timing: reporter read 48 to 72 hours after siRNA transfection
# Treatment: flagellin stimulation for 4 hours, dose not given
# Read-out: 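Firefly to renilla ratio from a TNF promoter reporter after 4 h flagellin, as robust z against negative controls averaged across replicates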
# Reading the numbers: TNF reporter z-score: higher = stronger TNF promoter activity than controls
# Hit rule: 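Active means the mean reporter z is about 1.5 or more, or about -1.5 or less; values closer to zero are inactive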
# Calls: active = reporter shifted beyond 1.5 z, up or down; inactive = reporter within 1.5 z of controls
# This is an unselected part of 756 deposited reagents. 142 of all reagents (19%) were called active. 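Active includes both higher and lower reporter signal; each gene has six separate siRNAs, and no gene-level summary is deposited.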 The numbers tell different reagents against one gene apart. Not stated in the record: the amount of reagent.
gene,reagent,TNF reporter z-score,Call
IKBKE,1,0.465,inactive
IKBKE,2,-1.22,inactive
IKBKE,3,0.554,inactive
IKBKE,4,0.642,inactive
IKBKE,5,-1.4,inactive
IKBKE,6,0.465,inactive
JUN,1,-1.84,active
JUN,2,-0.978,inactive
JUN,3,-0.664,inactive
JUN,4,-1.03,inactive
JUN,5,0.00181,inactive
JUN,6,-0.791,inactive
MAPKAPK2,1,-0.00802,inactive
MAPKAPK2,2,-0.55,inactive
MAPKAPK2,3,-1.32,inactive
MAPKAPK2,4,0.0719,inactive
MAPKAPK2,5,0.558,inactive
MAPKAPK2,6,-1.24,inactive
MAP3K7,1,-2.8,active
MAP3K7,2,-2.65,active
MAP3K7,3,-5.66,active
MAP3K7,4,-2.28,active
MAP3K7,5,-2.72,active
MAP3K7,6,-2.98,active
TNFAIP3,1,-2.37,active
TNFAIP3,2,-1.22,inactive
TNFAIP3,3,-2.94,active
TNFAIP3,4,-1.4,inactive
TNFAIP3,5,0.478,inactive
TNFAIP3,6,-2.17,active
SP1,1,-2.21,active
SP1,2,-1.22,inactive
SP1,3,0.671,inactive
SP1,4,2.69,active
SP1,5,-0.125,inactive
SP1,6,-0.48,inactive
ELK1,1,-1.41,inactive
ELK1,2,-0.966,inactive
ELK1,3,-1.14,inactive
ELK1,4,0.291,inactive
ELK1,5,-0.446,inactive
ELK1,6,0.767,inactive
CXCL11,1,-1.97,active
CXCL11,2,-0.155,inactive
CXCL11,3,-0.126,inactive
CXCL11,4,-0.187,inactive
CXCL11,5,-0.143,inactive
CXCL11,6,-0.0658,inactive
AKT3,1,0.0326,inactive
AKT3,2,-0.981,inactive
AKT3,3,1.48,inactive
AKT3,4,-0.444,inactive
AKT3,5,-0.792,inactive
AKT3,6,-1.59,active
ELF4,1,-3.69,active
ELF4,2,-0.989,inactive
ELF4,3,-0.247,inactive
ELF4,4,-0.631,inactive
ELF4,5,-1.87,active
ELF4,6,-0.939,inactive
RELA,1,-3.54,active
RELA,2,-0.826,inactive
RELA,3,-1.42,inactive
RELA,4,-1.11,inactive
RELA,5,-0.0355,inactive
RELA,6,-2.61,active
IL1B,1,-1.1,inactive
IL1B,2,-0.653,inactive
IL1B,3,-0.963,inactive
IL1B,4,-1.48,inactive
IL1B,5,-1.43,inactive
IL1B,6,-1.63,active

17 entries from above in another layout.
{"gene": "AKT3", "reagent": 6, "TNF reporter z-score": -1.59, "Call": "active"}
{"gene": "ELF4", "reagent": 1, "TNF reporter z-score": -3.69, "Call": "active"}
{"gene": "ELF4", "reagent": 2, "TNF reporter z-score": -0.989, "Call": "inactive"}
{"gene": "ELF4", "reagent": 3, "TNF reporter z-score": -0.247, "Call": "inactive"}
{"gene": "ELF4", "reagent": 4, "TNF reporter z-score": -0.631, "Call": "inactive"}
{"gene": "ELF4", "reagent": 5, "TNF reporter z-score": -1.87, "Call": "active"}
{"gene": "ELF4", "reagent": 6, "TNF reporter z-score": -0.939, "Call": "inactive"}
{"gene": "RELA", "reagent": 1, "TNF reporter z-score": -3.54, "Call": "active"}
{"gene": "RELA", "reagent": 2, "TNF reporter z-score": -0.826, "Call": "inactive"}
{"gene": "RELA", "reagent": 3, "TNF reporter z-score": -1.42, "Call": "inactive"}
{"gene": "RELA", "reagent": 4, "TNF reporter z-score": -1.11, "Call": "inactive"}
{"gene": "RELA", "reagent": 5, "TNF reporter z-score": -0.0355, "Call": "inactive"}
{"gene": "RELA", "reagent": 6, "TNF reporter z-score": -2.61, "Call": "active"}
{"gene": "IL1B", "reagent": 1, "TNF reporter z-score": -1.1, "Call": "inactive"}
{"gene": "IL1B", "reagent": 2, "TNF reporter z-score": -0.653, "Call": "inactive"}
{"gene": "IL1B", "reagent": 3, "TNF reporter z-score": -0.963, "Call": "inactive"}
{"gene": "IL1B", "reagent": 4, "TNF reporter z-score": -1.48, "Call": "inactive"}

Additional results:
gene,reagent,TNF reporter z-score,Call
EP300,1,0.976,inactive
EP300,2,0.568,inactive
EP300,3,0.752,inactive
EP300,4,0.309,inactive
EP300,5,0.44,inactive
EP300,6,0.698,inactive
MAP2K1,1,0.575,inactive
MAP2K1,2,-0.53,inactive
MAP2K1,3,-0.753,inactive
MAP2K1,4,-0.155,inactive
MAP2K1,5,-0.738,inactive
MAP2K1,6,0.757,inactive
TOLLIP,1,-1.34,inactive
TOLLIP,2,-0.789,inactive
TOLLIP,3,0.814,inactive
TOLLIP,4,-2.4,active
TOLLIP,5,0.0982,inactive
TOLLIP,6,0.522,inactive
RIPK3,1,0.368,inactive
RIPK3,2,-0.302,inactive
RIPK3,3,0.575,inactive
RIPK3,4,-0.624,inactive
RIPK3,5,-0.239,inactive
RIPK3,6,0.0492,inactive
MAP3K14,1,1.03,inactive
MAP3K14,2,0.998,inactive
MAP3K14,3,1.03,inactive
MAP3K14,4,-0.249,inactive
MAP3K14,5,-0.0488,inactive
MAP3K14,6,-0.698,inactive
TAB1,1,-1.03,inactive
TAB1,2,-2.63,active
TAB1,3,-1.24,inactive
TAB1,4,-1.2,inactive
TAB1,5,-0.266,inactive
TAB1,6,-1.33,inactive
PIK3CA,1,0.0114,inactive
PIK3CA,2,-0.842,inactive
PIK3CA,3,-0.333,inactive
PIK3CA,4,0.078,inactive
PIK3CA,5,-0.84,inactive
PIK3CA,6,-0.412,inactive
